{
  "source": "PubChem BioAssay AID504648",
  "about": "(National Center for Advancing Translational Sciences (NCATS), 2011)",
  "note": "The campaign covered roughly 390,000 compounds. About 610 (0.16%) were called active. Inconclusive results, whose numbers are uncertain, are shown with a selection of clear calls. Calls follow the shape of the dose curve; as a rule, active = well fitted inhibition curve with a large enough effect; inconclusive = small, poorly fitted or top-dose-only effect, or effect the other way, or another doubt; inactive = no such curve, though single readings can be large or run the other way. Potencies of inconclusive entries are doubtful fits and often do not repeat. Some structures have more than one record in an assay (separate samples or runs), and their calls can disagree. Potency is read from the fitted curve at half-maximal effect.",
  "data": [
    {"experiment": "Nrf2 qHTS screen for inhibitors: counterscreen for cytotoxicity", "conditions": "A549 ARE-Fluc cells, CellTiter-Fluor viability, 18-24 h; series mostly up to 46 µM", "how_it_was_run": "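A549 ARE_Fluc cells in 5% FBS OPTI-MEM were exposed to compounds in concentration-response for 18-24 h at 37 deg C. Viability was read by CellTiter-Fluor fluorescence (Ex 405/Em 525) after 30 min, before the luciferase read.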", "values": [
      {"smiles": "CCOC(=O)CC1C(=O)NCCN1c1nc2c(C)cccn2c(=O)c1/C=C1\\SC(=S)N(C(C)CC)C1=O", "note": "(stereo not drawn)", "Potency": "active: 20.6 µM"},
      {"smiles": "CCOC(=O)c1c(N)sc(=S)c2c1CCC2", "Potency": "inactive"},
      {"smiles": "CCOC(=O)c1ccc(N2C(=O)c3n[nH]c(-c4cccs4)c3C2c2ccc(Cl)cc2Cl)cc1", "note": "(stereo not drawn)", "Potency": "inactive"},
      {"smiles": "CCOC(=O)Cn1nnnc1C(C(C)C)N(Cc1cc2c(C)cc(C)cc2[nH]c1=O)C1CCCC1", "note": "(stereo not drawn)", "Potency": "inconclusive: 29.1 µM [falling, single point]"},
      {"smiles": "Cc1c(C(=O)NCCN(C)C)sc2nc3n(c(=O)c12)CCC3", "Potency": "inactive"},
      {"smiles": "C=CC(=O)Nc1ccc(Nc2nc(NC3CCC(N(C)C)CC3)nc3c2ncn3C(C)C)cc1", "note": "(stereo not drawn)", "Potency": "active: 18.4 µM"},
      {"smiles": "CC(C)CCn1c(O)c(N=NC(=O)c2ccco2)c2ccccc21", "Potency": "inactive"},
      {"smiles": "Oc1c(CN2CCN(c3ccccn3)CC2)cc(Cl)c2cccnc12", "Potency": "inconclusive: 32.6 µM [falling, single point]"},
      {"smiles": "Cc1cccc(C(=O)NCC(=O)OCc2cc(=O)n3nc(C4CC4)sc3n2)c1", "Potency": "inactive"},
      {"smiles": "CCCCCCCCCNC(=O)[C@H](NC(=O)COc1ccccc1)[C@@H]1NC(C(=O)OC)C(C)(C)S1", "note": "(stereo partly drawn)", "Potency": "inconclusive: 32.6 µM [falling, partial curve, poor fit]"},
      {"smiles": "Cc1cccc(-n2c(SCC(=O)c3ccccc3)nnc2-c2ccc(Br)cc2)c1", "Potency": "inconclusive: 25.9 µM [falling, partial curve, poor fit]"},
      {"smiles": "COc1cc2c(c(OC)c1)C(c1cc(OC)c(OC)c(OC)c1)CC(=O)N2", "note": "(stereo not drawn)", "Potency": "inactive"},
      {"smiles": "CC1=C(C(=O)Nc2ccccc2)C(c2ccc(C)o2)n2c(s/c(=C\\c3ccco3)c2=O)=N1", "note": "(stereo not drawn)", "Potency": "inconclusive: 20 µM [falling, single point]"},
      {"smiles": "CCOC(=O)C1=C(C)N(c2ccccc2)C(=O)NC1c1cccc([N+](=O)[O-])c1", "note": "(stereo not drawn)", "Potency": "inactive"},
      {"smiles": "COc1c(-c2ccc(O)c(O)c2)oc2cc(O)cc(O)c2c1=O", "Potency": "inactive"},
      {"smiles": "Cc1ccc(/C=C2/SC(=S)N(CCC(=O)N3CCN(C)CC3)C2=O)cc1", "Potency": "inconclusive: 14.6 µM [falling, partial curve]"},
      {"smiles": "O=C(Nc1ccc(Cl)cc1)Nc1ccc(N2CCCC2)c(S(=O)(=O)Nc2ccccc2Cl)c1", "Potency": "inconclusive: 9.2 µM [falling, partial curve, poor fit]"},
      {"smiles": "COc1ccc(N(C(=O)c2ccncc2)S(=O)(=O)c2cccc([N+](=O)[O-])c2)cc1", "Potency": "inactive"},
      {"smiles": "COc1cccc(C2CC(c3ccc(C)cc3)n3nc(N)nc3N2)c1", "note": "(stereo not drawn)", "Potency": "inconclusive: 4.61 µM [activator, full curve]"},
      {"smiles": "COc1cc(NC(=O)c2ccc(NC(=O)N3CCSc4ncccc43)cc2)cc(OC)c1", "Potency": "inactive"},
      {"smiles": "Cc1c(Cl)cccc1NC(=O)C1COc2ccccc2O1", "note": "(stereo not drawn)", "Potency": "inconclusive: 23.1 µM [activator, single point]"},
      {"smiles": "CSCCC(=O)N(C)CC1CCN(CCc2cccc(C(F)(F)F)c2)CC1", "Potency": "inconclusive: 18.4 µM [falling, partial curve, poor fit]"},
      {"smiles": "COc1ccccc1NS(=O)(=O)c1cccc(NC(=O)Nc2ccc(Cl)cc2)c1", "Potency": "inconclusive: 16.4 µM [falling, single point]"},
      {"smiles": "O=C(N/N=C/c1c(O)ccc2ccccc12)c1ccc(Br)o1", "Potency": "inconclusive: 29.1 µM [falling, partial curve, poor fit]"},
      {"smiles": "COc1ccc(NC(=O)/C=C\\C(=O)N(c2ccc(C(C)C)cc2)C(C(=O)NCc2ccco2)c2ccc(F)cc2)cc1", "note": "(stereo not drawn)", "Potency": "inconclusive: 25.9 µM [falling, single point]"},
      {"smiles": "O=C(NNc1ccc(O)cc1)c1ccc(Br)cc1", "Potency": "inconclusive: 0.0116 µM [activator, full curve, poor fit]"},
      {"smiles": "O=C1c2ccccc2C(=O)c2c1oc(C(F)(F)F)c2C(=O)c1ccccc1", "Potency": "inconclusive: 20.6 µM [falling, single point]"},
      {"smiles": "CC1CC(=O)NN1C(=O)c1ccccc1", "note": "(stereo not drawn)", "Potency": "inactive"},
      {"smiles": "CN(C)c1nc(/C=C(\\C#N)C(N)=O)c(Cl)n1-c1ccc(F)cc1", "Potency": "inactive"},
      {"smiles": "Cc1noc(C)c1S(=O)(=O)N(C)CC(=O)Nc1ccc(F)cc1", "Potency": "inconclusive: 7.31 µM [activator, partial curve, poor fit]"},
      {"smiles": "Cc1ccc(NC(=O)Cn2c(=O)oc3cc(S(=O)(=O)N4CCCCCC4)ccc32)cc1Cl", "Potency": "inactive"},
      {"smiles": "Cc1ccc(N=Nc2c(=O)[nH]n3c(C)cc(C)nc23)cc1", "Potency": "inconclusive: 11.6 µM [falling, partial curve, poor fit]"},
      {"smiles": "C#CCOc1ccccc1/C=N/NC(=O)c1ccccc1OCc1ccccc1", "Potency": "inconclusive: 23.1 µM [falling, partial curve, poor fit]"},
      {"smiles": "O=C(C1CCCN(c2ncnc3c2nc2n3CCCCC2)C1)N1CCN(c2ccc(Cl)cc2)CC1", "note": "(stereo not drawn)", "Potency": "inconclusive: 29.1 µM [falling, single point]"},
      {"smiles": "O=C(CC1SC(=Nc2ccccc2)N(Cc2ccccn2)C1=O)Nc1cccc(Cl)c1", "note": "(stereo not drawn)", "Potency": "inconclusive: 29.1 µM [falling, single point]"},
      {"smiles": "CCN(CC)CCC(c1cc(OC)c(OC)c(OC)c1)c1c(OC)cc(OC)c2ccc(=O)oc12", "note": "(stereo not drawn)", "Potency": "active: 14.6 µM"},
      {"smiles": "N#Cc1ccc(-c2ccc(F)cc2)nc1Sc1ccccc1", "Potency": "inconclusive: 13 µM [falling, single point]"},
      {"smiles": "COC(=O)c1ccc2c(=O)n(CCN3CCOCC3)c(SCC(=O)C(C)(C)C)nc2c1", "Potency": "inactive"},
      {"smiles": "CCCN(CCC)C(=O)c1ccc2nc(-c3ccc(OC)c(OC)c3)c(-c3ccc(OC)c(OC)c3)nc2c1", "Potency": "inactive"},
      {"smiles": "COc1ccc(CC(=O)Nc2ccc(-c3cn4ccc(C)cc4n3)cc2)cc1", "Potency": "inconclusive: 29.1 µM [falling, partial curve, poor fit]"},
      {"smiles": "CN(c1cccc(NC(=O)c2ccc(Cl)c(S(=O)(=O)Nc3ccccc3)c2)c1)S(C)(=O)=O", "Potency": "inactive"},
      {"smiles": "CCOC(=O)c1cc(-c2ccc(OC)cc2)nn1Cc1ccccc1", "Potency": "inconclusive: 5.8 µM [activator, partial curve]"},
      {"smiles": "COc1ccc(S(=O)(=O)Nc2ccc3c(c2)C(=O)N([C@H](C)CO)C[C@H](C)[C@@H](CN(C)C(=O)NC2CCCCC2)O3)cc1", "Potency": "inactive"},
      {"smiles": "COc1cc(/C=C/C(=O)OCC(=O)NC(=O)NC(C)C)cc(OC)c1OC", "Potency": "inconclusive: 23.1 µM [activator, partial curve, poor fit]"},
      {"smiles": "CC1CN(S(=O)(=O)c2ccccc2)CN1C(=O)N1CCOCC1", "note": "(stereo not drawn)", "Potency": "inconclusive: 6.51 µM [falling, single point]"},
      {"smiles": "O=C(N/N=C/c1ccc(F)c(F)c1)c1cccc(S(=O)(=O)N2CCCCC2)c1", "Potency": "inconclusive: 29.1 µM [activator, single point]"},
      {"smiles": "CCOC(=O)N1CCC2(CC1)C(C#N)=C(N)Oc1n[nH]c(CSc3ccc(C)cc3)c12", "Potency": "inactive"},
      {"smiles": "O=C(COc1ccc(C(=O)c2ccccc2)cc1)Nc1cccnc1", "Potency": "inconclusive: 16.4 µM [falling, partial curve, poor fit]"},
      {"smiles": "Cc1cc(C)n(CC(O)COc2cccc(OCC(O)Cn3nc(C)cc3C)c2)n1", "note": "(stereo not drawn)", "Potency": "inactive"},
      {"smiles": "OCCC1CN(Cc2cccs2)CCN1Cc1ccccc1", "note": "(stereo not drawn)", "Potency": "inactive"},
      {"smiles": "Clc1ccc(Cc2nn3c(Cn4nnc5ccccc54)nnc3s2)cc1", "Potency": "inactive"},
      {"smiles": "FC(F)(F)c1cc(-c2cccs2)nc(-n2cc(Br)cn2)n1", "Potency": "inactive"},
      {"smiles": "Cc1ccc(-n2c(-c3ccccc3)c[n+]3c2CCc2ccccc2-3)c(C)c1", "Potency": "inconclusive: 14.6 µM [falling, partial curve, poor fit]"},
      {"smiles": "CC(=O)Nc1nc2cc([N+](=O)[O-])ccc2s1", "Potency": "inconclusive: 18.4 µM [falling, partial curve, poor fit]"},
      {"smiles": "Cc1ccc(Cn2c(C)c(CNCc3ccc(OC(C)C)cc3)c(C(=O)O)c2C)cc1", "Potency": "inactive"},
      {"smiles": "O=C(CSc1ccc(F)cc1)NC1CCCCC1", "Potency": "inactive"},
      {"smiles": "COc1ccc(-c2noc(CSc3nnc(-c4ccncc4)n3-c3ccc(C)c(C)c3)n2)cc1", "Potency": "inconclusive: 32.6 µM [falling, partial curve, poor fit]"},
      {"smiles": "CC1=C(C(=O)OCc2ccccc2)C(/C=C/c2ccccc2)NC(=S)N1", "note": "(stereo not drawn)", "Potency": "inactive"},
      {"smiles": "O=[N+]([O-])c1ccc(O)c(/C=N/Nc2ccccc2[N+](=O)[O-])c1", "Potency": "inconclusive: 23.1 µM [falling, single point]"},
      {"smiles": "CCOC(=O)c1[nH]c2ccccc2c1NC(=O)c1cc(OCC)c(OCC)c(OCC)c1", "Potency": "inactive"},
      {"smiles": "CC1=CC(c2ccccc2)n2nc(NS(=O)(=O)c3ccc(C)cc3)nc2N1", "note": "(stereo not drawn)", "Potency": "inconclusive: 6.51 µM [activator, single point]"},
      {"smiles": "COc1cc(NC(=O)CC(C)S(=O)(=O)c2cc3c4c(c2)CCN4C(=O)CC3)cc(OC)c1", "note": "(stereo not drawn)", "Potency": "inactive"},
      {"smiles": "COc1ccc(-c2nc(Cn3c(SCc4ccc(F)cc4)nc4cccnc43)c(C)o2)cc1", "Potency": "inconclusive: 13 µM [falling, partial curve]"},
      {"smiles": "COc1ccc(C2=Nn3c(nnc3-c3ccccc3Cl)SC2)cc1OC1CCOC1", "note": "(stereo not drawn)", "Potency": "inactive"},
      {"smiles": "C=CCC[C@H](Cc1ccc(F)cc1)C(=O)OC[C@@H](Cc1c[nH]c2ccccc12)NC(=O)[C@H](CC=C)CC(=O)N[C@H](CO)Cc1ccccc1", "Potency": "inconclusive: 32.6 µM [falling, partial curve, poor fit]"},
      {"smiles": "CCCOc1ccc(NC(=O)CC2C(=O)N(Cc3ccccc3)C(=S)N2Cc2cccs2)cc1", "note": "(stereo not drawn)", "Potency": "inconclusive: 29.1 µM [falling, single point]"},
      {"smiles": "Cc1ccc(C2/C(=C(/O)c3ccc(Br)cc3)C(=O)C(=O)N2Cc2ccco2)o1", "note": "(stereo not drawn)", "Potency": "inconclusive: 10.3 µM [falling, partial curve, poor fit]"},
      {"smiles": "COc1ccccc1C(=O)NCc1n[nH]c(=S)n1Cc1ccccc1", "Potency": "inconclusive: 8.2 µM [falling, partial curve, poor fit]"}
    ]}
  ]
}
